In article PMC5943352:
Where a chain is given by its changes, count along the chain named. These are yes or no findings as the source states them, for the method shown. For part of these data: Binding seen in cells or lysates may run through a third protein. Some binding calls cover weakened binding; strength is not graded here. For part of these data: Where a sequence is shown, tags or fusion partners need not be part of it. Values belong to the molecule of their own block, whether it stands above or below them.

Chains of the proteins cited; added tags and fusions are not shown. Lines headed by an entry give the natural chain unless they say otherwise; changes in a name come on top.
UniProt Q9H1Y0: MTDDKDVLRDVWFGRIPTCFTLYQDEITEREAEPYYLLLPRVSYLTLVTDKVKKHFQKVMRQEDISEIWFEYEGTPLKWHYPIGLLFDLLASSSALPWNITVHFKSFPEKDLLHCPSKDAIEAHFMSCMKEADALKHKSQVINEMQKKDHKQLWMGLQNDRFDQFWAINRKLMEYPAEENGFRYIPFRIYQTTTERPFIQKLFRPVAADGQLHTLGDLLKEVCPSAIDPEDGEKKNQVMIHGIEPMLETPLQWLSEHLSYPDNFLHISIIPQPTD
UniProt O94817: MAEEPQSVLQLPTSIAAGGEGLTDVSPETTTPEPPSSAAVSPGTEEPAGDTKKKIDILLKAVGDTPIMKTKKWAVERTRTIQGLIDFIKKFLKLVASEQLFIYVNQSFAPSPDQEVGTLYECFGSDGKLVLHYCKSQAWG

Tests used:
[1] = target: T1, FLAG-RAB37 (wild type) (human (from the RefSeq id NM_175738.4)) (UniProt Q96AX2); assay: co-IP; 293T co-transfected with MYC-ATG5 and FLAG-RAB37-WT, -T43N, -Q89L or control plasmid; starvation; IP anti-FLAG, blot anti-MYC and anti-FLAG
T1 sequence: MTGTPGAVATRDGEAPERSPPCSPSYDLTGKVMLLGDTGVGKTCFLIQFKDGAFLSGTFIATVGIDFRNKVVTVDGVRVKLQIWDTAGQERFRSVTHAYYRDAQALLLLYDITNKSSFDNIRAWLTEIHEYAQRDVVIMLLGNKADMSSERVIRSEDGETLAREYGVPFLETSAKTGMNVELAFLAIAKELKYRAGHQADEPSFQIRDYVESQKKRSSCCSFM

[2] = target: T2, FLAG-RAB37-T43N (human (from the RefSeq id NM_175738.4)) (UniProt Q96AX2); assay: as above
T2 sequence: T1 sequence with T43N

[3] = target: T3, FLAG-RAB37-Q89L (human (from the RefSeq id NM_175738.4)) (UniProt Q96AX2); assay: as above
T3 sequence: T1 sequence with Q89L

[4] = target: ATG5 (endogenous, 293T cells) (human (endogenous in 293T)) (UniProt Q9H1Y0); assay: co-IP; endogenous proteins in 293T lysate; immunoprecipitated with anti-ATG5, anti-RAB37 antibody or negative serum, blotted with anti-RAB37 or anti-ATG5; cells starved in EBSS 1 h; NETN buffer (50 mM Tris-HCl pH 8.0, 0.15 M NaCl, 1 mM EDTA, 0.5% NP-40), overnight 4 °C
[5] = target: ATG5-12 (endogenous ATG5-ATG12 conjugate, 293T cells) (human (endogenous in 293T)) (UniProt Q9H1Y0+O94817); assay: as above
BD-ATG5 (human) = BD-ATG5 (human) (UniProt Q9H1Y0); assay: two-hybrid; Y2HGold yeast; AD-RAB37 (pGADT7) with BD-ATG5 constructs (pGBKT7); growth on SD/-Leu/-Trp/-His at 30 °C
GST-ATG5 (human) = GST-ATG5 (human) (UniProt Q9H1Y0); assay: pull-down; GST fusions on glutathione-agarose beads incubated overnight at 4 °C with His-RAB37 E. coli supernatant pre-incubated with 50 uM GTPgammaS; washed with NETN buffer; blot anti-RAB37; only the target purified
[6] = target: ATG5 (endogenous, HeLa cells) (human (endogenous in HeLa)) (UniProt Q9H1Y0); assay: co-IP; endogenous proteins in lysates of control and RAB37-knockdown HeLa cells starved 1 h; IP anti-ATG5 or negative serum, blot anti-RAB37, anti-ATG16L1 or anti-ATG5
[7] = target: MYC-GFP-ATG5 (wild type) (human) (UniProt Q9H1Y0); assay: co-IP; 293T co-transfected with FLAG-RAB37 and MYC-GFP-ATG5 wild type or deletion mutants; reciprocal: IP anti-GFP, blot anti-FLAG, and IP anti-FLAG, blot anti-GFP; NETN buffer

binding [4]: binds
binding [5]: binds
B1: RAB37 (endogenous, 293T cells) (protein, UniProt Q96AX2 1-223)
chain: T1 sequence

binding [6]: binds
B4: RAB37 (endogenous, HeLa cells) (protein, UniProt Q96AX2 1-223)
chain: T1 sequence

The remaining lines, values behind:

Molecule: MYC-ATG5 (from UniProt Q9H1Y0-1 1-275)
binding [1]: binds
binding [2]: binds weakly
binding [3]: binds

B2: AD-RAB37 (protein, UniProt Q96AX2-1 1-223)
chain: T1 sequence
binding (BD-ATG5 (human)): binds

B3: His-RAB37 (protein, UniProt Q96AX2-1 1-223)
chain: T1 sequence
binding (GST-ATG5 (human)): binds

B5: FLAG-RAB37 (wild type) (protein, UniProt Q96AX2-1 1-223)
chain: T1 sequence
binding [7]: binds
